# According to US6656695B2, “Biomap characterization of biologically active agents” (Bioseek, Inc., priority 2000, dated 2003):
# At least one structure is not confirmed: it was looked up by name or label, or the drawing left a doubt.
# Tested on: HUVEC cells
# Experiment: multiplex (secondary) assay combinations: HUVEC with single pathway activators or media, biomaps by cell-based ELISA
# Design: species or system human
# Conditions: TNF-α, IFN-γ, IL-1 alone or combined; 20 μM AA861, 10 μM NHGA; FIG. 5
# Protocol: Confluent cultures of HUVEC cells are treated with TNF-α (5 ng/ml), IFN-γ (100 ng/ml), IL-1 (20 ng/ml), the combination of TNF-α+IFN-γ+IL-1, or media (no cytokine) in the presence or absence of neutralizing anti-TNF-α, 20 μM AA861 or 10 μM NHGA. After 24 hours, cultures are washed and evaluated for the cell surface expression of ICAM-1 (1), VCAM-1 (2), E-selectin (3), IL-8 (4), and MIG (5) by cell-based ELISA performed as described in FIG. 1. A color-coded representation of the resulting biomaps derived from the data is shown in FIG. 5, coded as described in FIG. 2B.
# Confirmation is performed by evaluating the test agent in assay combinations that include both physiologic and alternative pathway activators. […] After 24 hours, cultures are washed and evaluated for the cell surface expression of ICAM-1 (1), VCAM-1 (2), E-selectin (3), CD31 (4), and MIG (5) by cell-based ELISA performed as described in FIG. 1. […]
# In FIG. 7B, confluent cultures of HUVEC cells are treated with TNF-α (5 ng/ml), IFN-γ (100 ng/ml), IL-1 (20 ng/ml), the combination of TNF-α+IFN-γ+IL-1, or media in the presence or absence of p55-Fc. After 24 hours, cultures are washed and evaluated for the cell surface expression of ICAM-1 (1), VCAM-1 (2), E-selectin (3), IL-8 (4), and MIG (5) by cell-based ELISA performed as described in FIG. 1. […]
compound,measurement,value
CC1=C(C)C(=O)C(CCCCC#CCCCC#CCO)=C(C)C1=O [AA861],cytokine signaling pathways targeted,target multiple cytokine signaling pathways
